From publication doi:10.1101/617910
No constants are given. Whether binding was seen depends on the method and setting. In cells and extracts the contact can be indirect. These calls come from enrichment with a bait or labelling near it, and not all partners need be listed. Blank lines part the entries; values can stand above or below the binder they belong to.

How the values were obtained:
Tsr1-TAP (yeast) = target: T1, Tsr1-TAP (yeast) (UniProt Q07381); assay: affinity purification with mass spectrometry
T1 sequence: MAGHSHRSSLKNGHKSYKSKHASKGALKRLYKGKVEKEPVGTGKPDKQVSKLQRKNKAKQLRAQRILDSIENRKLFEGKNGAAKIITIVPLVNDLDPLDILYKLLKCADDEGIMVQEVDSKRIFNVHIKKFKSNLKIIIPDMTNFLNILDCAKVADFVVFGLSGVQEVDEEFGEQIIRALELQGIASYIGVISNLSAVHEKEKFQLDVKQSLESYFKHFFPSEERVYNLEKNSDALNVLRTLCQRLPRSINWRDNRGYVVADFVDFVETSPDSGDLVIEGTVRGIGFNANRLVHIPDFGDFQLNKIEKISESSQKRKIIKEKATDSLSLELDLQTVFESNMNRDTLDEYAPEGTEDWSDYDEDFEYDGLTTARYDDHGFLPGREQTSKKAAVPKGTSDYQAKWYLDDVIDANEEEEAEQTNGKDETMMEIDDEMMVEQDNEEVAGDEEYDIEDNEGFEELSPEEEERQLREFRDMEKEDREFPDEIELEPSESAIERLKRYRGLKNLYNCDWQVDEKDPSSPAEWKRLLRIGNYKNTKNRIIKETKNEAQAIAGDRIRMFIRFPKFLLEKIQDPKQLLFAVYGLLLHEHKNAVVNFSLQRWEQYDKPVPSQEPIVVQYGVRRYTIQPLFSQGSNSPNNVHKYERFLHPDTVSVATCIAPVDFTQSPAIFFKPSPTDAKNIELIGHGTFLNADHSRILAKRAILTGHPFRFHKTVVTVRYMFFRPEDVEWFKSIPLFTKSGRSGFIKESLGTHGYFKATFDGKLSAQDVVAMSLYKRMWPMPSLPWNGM

Tsr1-TAP (yeast), Q07381 = target: T2, Tsr1-TAP (yeast), Q07381; assay: affinity purification with mass spectrometry; settings: remark: other sources report otherwise
T2 chain: T1 sequence

binding (Tsr1-TAP (yeast)): binds weakly
B1: Nob1 (protein, UniProt Q08444 1-459)
chain: MTENQTAHVRALILDATPLITQSYTHYQNYAQSFYTTPTVFQEIKDAQARKNLEIWQSLGTLKLVHPSENSIAKVSTFAKLTGDYSVLSANDLHILALTYELEIKLNNGDWRLRKKPGDALDASKADVGTDGKQKLTEDNKKEEDSESVPKKKNKRRGGKKQKAKREAREAREAENANLELESKAEEHVEEAGSKEQICNDENIKESSDLNEVFEDADDDGDWITPENLTEAIIKDSGEDTTGSLGVEASEEDRHVALNRPENQVALATGDFAVQNVALQMNLNLMNFMSGLKIKRIRNYMLRCHACFKIFPLPKDGKPKHFCASCGGQGTLLRCAVSVDSRTGNVTPHLKSNFQWNNRGNRYSVASPLSKNSQKRYGKKGHVHSKPQENVILREDQKEYEKVIKQEEWTRRHNEKILNNWIGGGSADNYISPFAITGLKQHNVRIGKGRYVNSSKRRS

binding (Tsr1-TAP (yeast), Q07381): binds
B2: Dim1, P41819 1-318 (protein)
chain: MGKAAKKKYSGATSSKQVSAEKHLSSVFKFNTDLGQHILKNPLVAQGIVDKAQIRPSDVVLEVGPGTGNLTVRILEQAKNVVAVEMDPRMAAELTKRVRGTPVEKKLEIMLGDFMKTELPYFDICISNTPYQISSPLVFKLINQPRPPRVSILMFQREFALRLLARPGDSLYCRLSANVQMWANVTHIMKVGKNNFRPPPQVESSVVRLEIKNPRPQVDYNEWDGLLRIVFVRKNRTISAGFKSTTVMDILEKNYKTFLAMNNEMVDDTKGSMHDVVKEKIDTVLKETDLGDKRAGKCDQNDFLRLLYAFHQVGIHFS
